Experimental data: PubChem BioAssay AID686943 (Drosophila RNAi Screening Center, 2013)
Test: 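Fly genes whose loss alters ERK activation after insulin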 (primary screen). System: Drosophila S2R+ haemocyte-like cells expressing YFP-tagged ERK (Rolled). Reagent: long dsRNA against Drosophila genes. Challenge: insulin stimulation versus unstimulated cells; dose and duration not given. Detection: 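Per-plate z-scores of phospho-ERK immunostaining normalised to YFP-tagged ERK, measured with and without insulin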. Reading the numbers: replicate 1, z-score of dpERK with insulin: higher = more active ERK per ERK-YFP after insulin.
The deposit covers about 23,000 reagents; this is an unselected part of those with a known target gene and a result. 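Extra replicates exist only for a retested subset of genes; insulin dose and duration not given; both raised and lowered dpERK matter.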 The numbers tell different reagents against one gene apart. Names joined by + are all predicted targets of the reagent. Further read-outs or replicates are left out here. Reagent sequences are not shown. Not given: the amount of reagent, the time to read-out.

replicate 1, z-score of dpERK with insulin, by target gene and reagent
Ank2: #1 -0.11; #2 0.28; #3 -0.65; #4 -0.2; #5 -0.24
CG14052: #1 0; #2 0.18
18w: #1 0.16
Elo68beta: #1 0.32
Mpp6: #1 -0.17
Alg9: #1 -0.53
CG4020: #1 -0.62
Afg3l2: #1 -0.08
CG14780: #1 -0.4
RfC4: #1 -0.52
CG13390: #1 -0.01
ncd: #1 -0.88
Acf: #1 0.13
CG14079: #1 0.73
ppk15: #1 -2.15
CG7656: #1 0.97
PH4alphaEFB: #1 -1.04; #2 -0.27
CG11906: #1 0.58
AdoR: #1 -1.33
Set: #1 -0.79
CG7140: #1 -0.21
CG12491 + CG34105: #1 0.97; #2 1.11
Orc1: #1 -0.9
CG4161: #1 0.99
CG7772: #1 0.04
CG15253: #1 0.96
shi: #1 -1.26
CG17917: #1 0.04
Gpa2: #1 0.05
ND-B8: #1 -0.49
ng3: #1 0.44
CR32511: #1 0.06
CG12071: #1 -0.73
CG13870: #1 -0.7
Vps51: #1 0.4
CG13685: #1 0.18
CG31380: #1 -0.18
lig: #1 0.6; #2 -1.85
E2f2: #1 0.3
CalpA: #1 0.95
CG34276: #1 0.37
CG31676: #1 0.07
chrb: #1 0.86
Cog3: #1 0.37
TBC1d7 + mRpS24: #1 -0.47
GC: #1 0.2
bero: #1 0.16
CG13066: #1 0.06
Ets96B: #1 -0.54
